Reference: publication PMC6115913
No constants are given. Whether binding was seen depends on the method and setting. In cells and extracts the contact can be indirect. Some results given as binding are weak or reduced against the parent protein; the word gives no strength. For part of these data: Where a sequence is shown, tags or fusion partners need not be part of it.

Sequences of proteins named here, by UniProt entry; tags and fusion partners are left off.
UniProt O60674: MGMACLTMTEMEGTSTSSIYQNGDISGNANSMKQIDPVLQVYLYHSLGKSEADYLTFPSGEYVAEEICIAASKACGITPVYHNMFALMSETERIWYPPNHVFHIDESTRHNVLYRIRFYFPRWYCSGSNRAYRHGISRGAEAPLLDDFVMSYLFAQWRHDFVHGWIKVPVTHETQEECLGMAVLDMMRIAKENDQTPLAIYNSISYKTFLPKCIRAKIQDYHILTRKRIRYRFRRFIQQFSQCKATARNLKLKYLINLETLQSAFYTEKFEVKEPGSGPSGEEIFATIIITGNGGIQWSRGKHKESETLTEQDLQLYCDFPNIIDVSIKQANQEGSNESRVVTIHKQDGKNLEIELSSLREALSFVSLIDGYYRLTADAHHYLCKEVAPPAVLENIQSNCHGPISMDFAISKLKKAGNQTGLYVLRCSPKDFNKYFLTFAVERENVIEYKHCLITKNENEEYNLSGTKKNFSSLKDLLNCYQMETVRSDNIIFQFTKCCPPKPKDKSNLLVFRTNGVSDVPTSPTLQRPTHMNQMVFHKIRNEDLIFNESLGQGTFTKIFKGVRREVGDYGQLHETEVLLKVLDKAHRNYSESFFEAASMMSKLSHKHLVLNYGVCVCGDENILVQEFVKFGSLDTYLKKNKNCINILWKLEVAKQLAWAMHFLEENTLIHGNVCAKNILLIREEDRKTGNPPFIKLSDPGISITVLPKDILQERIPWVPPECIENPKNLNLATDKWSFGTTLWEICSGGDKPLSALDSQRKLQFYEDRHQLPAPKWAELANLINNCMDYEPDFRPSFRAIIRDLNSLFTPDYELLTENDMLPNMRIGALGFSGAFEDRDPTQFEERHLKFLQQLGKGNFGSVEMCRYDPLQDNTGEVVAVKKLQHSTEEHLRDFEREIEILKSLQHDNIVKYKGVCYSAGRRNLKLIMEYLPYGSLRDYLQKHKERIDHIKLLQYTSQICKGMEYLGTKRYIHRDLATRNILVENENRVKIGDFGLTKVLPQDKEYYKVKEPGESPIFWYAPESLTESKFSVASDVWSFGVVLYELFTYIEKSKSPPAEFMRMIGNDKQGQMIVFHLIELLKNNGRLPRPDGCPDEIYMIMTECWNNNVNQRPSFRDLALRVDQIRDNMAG
UniProt P40763: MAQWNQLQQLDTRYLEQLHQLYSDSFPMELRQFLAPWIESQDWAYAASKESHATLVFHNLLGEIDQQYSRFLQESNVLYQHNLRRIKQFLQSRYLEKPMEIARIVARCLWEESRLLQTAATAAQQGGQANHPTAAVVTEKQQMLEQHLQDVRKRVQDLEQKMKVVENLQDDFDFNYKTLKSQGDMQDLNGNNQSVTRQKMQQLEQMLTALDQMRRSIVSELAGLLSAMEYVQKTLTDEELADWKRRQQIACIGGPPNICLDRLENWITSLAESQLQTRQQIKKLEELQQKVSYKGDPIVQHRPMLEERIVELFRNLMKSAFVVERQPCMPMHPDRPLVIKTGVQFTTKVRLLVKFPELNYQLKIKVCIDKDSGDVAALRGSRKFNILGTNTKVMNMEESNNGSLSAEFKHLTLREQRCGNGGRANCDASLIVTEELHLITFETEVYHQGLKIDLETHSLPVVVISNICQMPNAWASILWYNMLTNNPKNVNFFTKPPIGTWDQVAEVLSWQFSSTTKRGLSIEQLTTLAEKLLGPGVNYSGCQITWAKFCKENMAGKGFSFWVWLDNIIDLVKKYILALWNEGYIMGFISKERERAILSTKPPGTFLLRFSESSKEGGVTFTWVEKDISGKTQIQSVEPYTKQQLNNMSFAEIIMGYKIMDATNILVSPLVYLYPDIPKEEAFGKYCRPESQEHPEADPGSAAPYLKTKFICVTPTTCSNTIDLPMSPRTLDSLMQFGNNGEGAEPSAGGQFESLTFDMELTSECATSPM

How the values were obtained:
[1] = molecular target: T1, Flag-tagged CEP55 (human) (UniProt Q53EZ4); experiment: co-IP; HepG2 cells with vector or Flag-CEP55; lysate (1% Triton X-100, 40 mM Hepes pH 7.5, 120 mM NaCl, 1 mM EDTA), 1 mg total protein; immunoprecipitation with anti-Flag mouse monoclonal antibody at 4 °C overnight, protein G-agarose; immunoblot
T1 sequence: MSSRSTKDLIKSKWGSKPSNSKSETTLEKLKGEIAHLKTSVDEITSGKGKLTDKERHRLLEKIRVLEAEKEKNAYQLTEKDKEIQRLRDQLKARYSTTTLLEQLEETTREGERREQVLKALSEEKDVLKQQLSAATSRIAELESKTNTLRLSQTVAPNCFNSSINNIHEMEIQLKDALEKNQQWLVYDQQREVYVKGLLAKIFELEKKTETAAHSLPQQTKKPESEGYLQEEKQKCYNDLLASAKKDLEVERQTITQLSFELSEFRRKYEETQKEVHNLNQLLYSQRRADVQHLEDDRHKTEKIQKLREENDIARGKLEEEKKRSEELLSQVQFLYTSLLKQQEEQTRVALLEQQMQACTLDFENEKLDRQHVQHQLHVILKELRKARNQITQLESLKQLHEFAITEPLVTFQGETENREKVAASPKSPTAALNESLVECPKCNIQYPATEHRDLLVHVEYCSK

[2] = molecular target: JAK2 (endogenous) (human (endogenous in HepG2 and Hep3B)) (UniProt O60674); experiment: co-IP; Hep3B cells with vector or Flag-CEP55; lysate (1% Triton X-100, 40 mM Hepes pH 7.5, 120 mM NaCl, 1 mM EDTA); immunoprecipitation with anti-JAK2 mouse monoclonal antibody at 4 °C overnight, protein G-agarose; immunoblot
[3] = molecular target: JAK2 (endogenous) (human (endogenous in HepG2 and Hep3B)) (UniProt O60674); experiment: co-IP; endogenous proteins in HepG2 cells; immunoprecipitation with CEP55 antibody, JAK2 antibody or mouse IgG at 4 °C overnight, protein G-agarose; immunoblot

## STAT3 (endogenous) (from UniProt P40763 1-770)
[1]
  binding: no binding

B1: Flag-tagged CEP55 (protein, UniProt Q53EZ4 1-464)
chain: MSSRSTKDLIKSKWGSKPSNSKSETTLEKLKGEIAHLKTSVDEITSGKGKLTDKERHRLLEKIRVLEAEKEKNAYQLTEKDKEIQRLRDQLKARYSTTTLLEQLEETTREGERREQVLKALSEEKDVLKQQLSAATSRIAELESKTNTLRLSQTVAPNCFNSSINNIHEMEIQLKDALEKNQQWLVYDQQREVYVKGLLAKIFELEKKTETAAHSLPQQTKKPESEGYLQEEKQKCYNDLLASAKKDLEVERQTITQLSFELSEFRRKYEETQKEVHNLNQLLYSQRRADVQHLEDDRHKTEKIQKLREENDIARGKLEEEKKRSEELLSQVQFLYTSLLKQQEEQTRVALLEQQMQACTLDFENEKLDRQHVQHQLHVILKELRKARNQITQLESLKQLHEFAITEPLVTFQGETENREKVAASPKSPTAALNESLVECPKCNIQYPATEHRDLLVHVEYCSK
[2]
  binding: binds

B2: CEP55 (endogenous) (protein, UniProt Q53EZ4 1-464)
chain: MSSRSTKDLIKSKWGSKPSNSKSETTLEKLKGEIAHLKTSVDEITSGKGKLTDKERHRLLEKIRVLEAEKEKNAYQLTEKDKEIQRLRDQLKARYSTTTLLEQLEETTREGERREQVLKALSEEKDVLKQQLSAATSRIAELESKTNTLRLSQTVAPNCFNSSINNIHEMEIQLKDALEKNQQWLVYDQQREVYVKGLLAKIFELEKKTETAAHSLPQQTKKPESEGYLQEEKQKCYNDLLASAKKDLEVERQTITQLSFELSEFRRKYEETQKEVHNLNQLLYSQRRADVQHLEDDRHKTEKIQKLREENDIARGKLEEEKKRSEELLSQVQFLYTSLLKQQEEQTRVALLEQQMQACTLDFENEKLDRQHVQHQLHVILKELRKARNQITQLESLKQLHEFAITEPLVTFQGETENREKVAASPKSPTAALNESLVECPKCNIQYPATEHRDLLVHVEYCSK
[3]
  binding: binds
